Laboratory results: the supplement of paper PMC12823440, “Inhibitors supercharge kinase turnover through native proteolytic circuits” (Nature, 2025)
Counter-ions that a name gives are not always drawn. The list shows a part of the results. Hit calls seldom repeat between salt and free forms of one compound.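 In K562 cells expressing nanoluciferase-fused kinases, luminescence was recorded at 4 h intervals between 2 and 18 h, normalized as percent of control with DMSO at 100% and a positive control at 0%. A significant (2 sigma) signal drop marks a time point as decreased. The authors' rule for a hit is not shown and takes in more than the number of time points.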

Amino acid sequences for entries named in this document (tags omitted). A change or cut given only in a name is not applied to a line headed by its entry.
UniProt Q9BUB5: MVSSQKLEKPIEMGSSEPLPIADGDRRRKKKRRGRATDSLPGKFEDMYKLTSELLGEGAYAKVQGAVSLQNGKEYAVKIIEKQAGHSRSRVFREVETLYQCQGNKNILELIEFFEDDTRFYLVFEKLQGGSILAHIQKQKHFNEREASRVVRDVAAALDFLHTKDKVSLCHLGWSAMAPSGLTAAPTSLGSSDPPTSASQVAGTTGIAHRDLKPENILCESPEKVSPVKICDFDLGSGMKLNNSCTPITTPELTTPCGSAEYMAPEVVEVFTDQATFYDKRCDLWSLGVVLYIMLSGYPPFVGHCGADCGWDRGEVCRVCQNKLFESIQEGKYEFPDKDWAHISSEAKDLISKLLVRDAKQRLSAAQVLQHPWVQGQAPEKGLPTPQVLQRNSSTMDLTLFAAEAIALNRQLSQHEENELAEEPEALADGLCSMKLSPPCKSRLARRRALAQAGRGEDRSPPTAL
UniProt Q16620, whole entry, looked up: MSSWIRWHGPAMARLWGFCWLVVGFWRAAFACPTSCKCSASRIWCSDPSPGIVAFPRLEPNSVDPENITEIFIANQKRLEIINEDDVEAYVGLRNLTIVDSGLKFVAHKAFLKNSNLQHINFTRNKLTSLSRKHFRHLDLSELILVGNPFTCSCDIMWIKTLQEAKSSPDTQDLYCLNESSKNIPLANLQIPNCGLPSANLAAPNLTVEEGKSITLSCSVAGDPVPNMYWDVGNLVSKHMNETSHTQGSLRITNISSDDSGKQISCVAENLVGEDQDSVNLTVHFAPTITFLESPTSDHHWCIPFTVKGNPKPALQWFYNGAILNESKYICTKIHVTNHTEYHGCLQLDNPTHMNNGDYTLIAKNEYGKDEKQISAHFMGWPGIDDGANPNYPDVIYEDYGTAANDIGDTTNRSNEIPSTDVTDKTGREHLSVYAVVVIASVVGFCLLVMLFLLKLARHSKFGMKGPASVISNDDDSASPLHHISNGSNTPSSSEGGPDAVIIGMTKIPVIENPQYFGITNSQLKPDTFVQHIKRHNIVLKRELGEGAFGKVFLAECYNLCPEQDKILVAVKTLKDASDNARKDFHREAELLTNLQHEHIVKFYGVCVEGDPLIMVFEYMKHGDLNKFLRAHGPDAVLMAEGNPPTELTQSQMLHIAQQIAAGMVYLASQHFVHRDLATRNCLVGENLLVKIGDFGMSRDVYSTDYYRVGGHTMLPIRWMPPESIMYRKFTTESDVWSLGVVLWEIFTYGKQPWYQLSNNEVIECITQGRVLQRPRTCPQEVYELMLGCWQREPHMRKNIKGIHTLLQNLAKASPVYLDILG

target: MKNK1 (UniProt Q9BUB5); experiment: kinase-Nluc reporter destabilization hit call (1 = scored as downregulated) (binary); higher = compound decreases kinase abundance; details: 10 µM; K562; 2-18 h

kinase-Nluc reporter destabilization hit call, inactive:
COc1cc2nccc(Oc3ccc(NC(=O)C4(C(=O)Nc5ccc(F)cc5)CC4)cc3)c2cc1OC [Cabozantinib (S-malate)] 0
Cn1cc(-c2cnc3ccc4ccc(CS(=O)(=O)NCc5ccccn5)cc4c(=O)c3c2)cn1 [MK-8033 (hydrochloride)] 0
CNC(=O)c1ccc(Nc2ncc(C(F)(F)F)c(NCc3nccnc3N(C)S(C)(=O)=O)n2)cc1 [Defactinib] 0
N#CCNC(=O)c1ccc(-c2ccnc(Nc3ccc(N4CCOCC4)cc3)n2)cc1 [Momelotinib] 0
CC(=O)c1c(C)c2cnc(Nc3ccc(N4CCNCC4)cn3)nc2n(C2CCCC2)c1=O [Palbociclib (isethionate)] 0
Nc1cncc(-c2cn3ccnc3c(Nc3ccc(N4CCN(C5COC5)CC4)cc3)n2)n1 [Lanraplenib (succinate)] 0
C#Cc1cccc(Nc2ncnc3cc4c(cc23)OCCOCCOCCO4)c1 [Icotinib] 0
O=C(O)c1ccc2c(c1)nc(Nc1cccc(Cl)c1)c1ccncc12 [Silmitasertib (sodium salt)] 0
CC(C)Nc1cc(-c2c[nH]c(C(=O)N[C@H](CO)c3cccc(Cl)c3)c2)c(Cl)cn1 [Ulixertinib (hydrochloride)] 0
C=CC(=O)N1CCN(c2ncnc3c(F)c(-c4c(O)cccc4F)c(Cl)cc23)CC1 0
CN(C)C(=O)c1cc2cnc(Nc3ccc(N4CCNCC4)cn3)nc2n1C1CCCC1 [Ribociclib] 0
COc1cc2c(-c3cnn4cc(N5CCC(N6CCN(C)CC6)CC5)cnc34)ccnc2cc1F [ALK2-IN-4 (succinate)] 0
CCN(CC)Cc1ccc(OC)c(-c2cc3c(-c4ccc(C(=O)O)c(C(C)C)c4)ccnc3[nH]2)c1 0
O=C(c1nn(-c2ccc(CN3CCOCC3)cc2)c2c1CS(=O)(=O)c1c(F)cccc1-2)N1CCOCC1 0
CC(C)(C)n1nc(-c2cccc3ccccc23)c2c(N)ncnc21 [1-Naphthyl PP1 (hydrochloride)] 0
CCN(CC)CC(=O)Nc1c(C)cccc1C [Lidocaine (hydrochloride)] 0
Cn1ncc(Cl)c1-c1cc(C(=O)N[C@H](CN)Cc2cccc(F)c2)sc1Cl [Afuresertib (hydrochloride)] 0
COc1cc2c(cc1OC)-c1c(C)c3ccc(OC)c(OC)c3c[n+]1CC2 [Dehydrocorydaline] 0
C[C@H](CCC(=O)NCCS(=O)(=O)O)[C@H]1CC[C@H]2[C@@H]3[C@@H](O)C[C@@H]4C[C@H](O)CC[C@]4(C)[C@H]3CC[C@]12C [Tauroursodeoxycholate (dihydrate)] 0
OCCn1cc(-c2cnc3nnn(Cc4ccc5ncccc5c4)c3n2)cn1 0
C[S+]([O-])c1ccc(-c2nc(-c3ccc(F)cc3)c(-c3ccncc3)[nH]2)cc1 (configuration not stated) 0
CC(C)(C)n1nc(-c2cccc3ccccc23)c2c(N)ncnc21 [1-Naphthyl PP1] 0

target: NTRK2 (UniProt Q16620); experiment: as above; details: 2.5 µM; K562; 2-18 h

kinase-Nluc reporter destabilization hit call, inactive:
CN1CCCN(C(=O)c2cccc(-c3ccc(/C=C4/C(=O)Nc5ccc(Cl)cc54)o3)c2)CC1 [CX-6258 (hydrochloride)] 0
Clc1ccc(C2(c3ccc(-c4cn[nH]c4)cc3)CCNCC2)cc1 [AT7867 (dihydrochloride)] 0
CC(C)Oc1ccc(-c2nn([C@@H](C)c3oc4ccc(F)cc4c(=O)c3-c3cccc(F)c3)c3ncnc(N)c23)cc1F [Umbralisib] 0
C=CC(=O)Nc1cc(Nc2nccc(-c3cn(C)c4ccccc34)n2)c(OC)cc1N(C)CCN(C)C [Osimertinib] 0
COc1cc2c(Oc3ccc4[nH]c(C)cc4c3F)ncnc2cc1OCCCN1CCCC1 [Cediranib (maleate)] 0
CC(C)Oc1ccc(-c2nn([C@@H](C)c3oc4ccc(F)cc4c(=O)c3-c3cccc(F)c3)c3ncnc(N)c23)cc1F [Umbralisib (hydrochloride)] 0
COc1ccc(S(=O)(=O)N(CCO)c2ccccc2CN(C)C/C=C/c2ccc(Cl)cc2)cc1 [KN-93 (hydrochloride)] 0
C=CC(=O)N1CCN(c2ncnc3c(F)c(-c4c(O)cccc4F)c(Cl)cc23)CC1 0
COc1ccc(S(=O)(=O)Nc2ccccc2CN(C)C/C=C/c2ccc(Cl)cc2)cc1 [KN-92 (hydrochloride)] 0
CCN(CC)Cc1ccc(OC)c(-c2cc3c(-c4ccc(C(=O)O)c(C(C)C)c4)ccnc3[nH]2)c1 0
CN(C)C/C=C/C(=O)Nc1cc2c(Nc3ccc(F)c(Cl)c3)ncnc2cc1O[C@H]1CCOC1 [Afatinib (dimaleate)] 0
Oc1cccc(-c2nc(N3CCOCC3)c3oc4ncccc4c3n2)c1 [PI-103 (Hydrochloride)] 0
c1cc(-c2cnn3cc(-c4ccc(OCCN5CCCCC5)cc4)cnc23)ccn1 [Dorsomorphin] 0
COc1ccc(S(=O)(=O)N(CCO)c2ccccc2CN(C)C/C=C/c2ccc(Cl)cc2)cc1 [KN-93 (phosphate)] 0
Nc1ncnc2c1c(-c1ccc(Oc3ccccc3)cc1)nn2[C@@H]1CCCNC1 [IBT6A (hydrochloride)] 0
